Measurements taken from US20210361776A1 (Seagen, published 2021).
No constants are given. Whether binding was seen depends on the method and setting. Some binding calls cover weakened binding; strength is not graded here.

Sequences of proteins named here, by UniProt entry; tags and fusion partners are left off. Residues count along the entry.
UniProt P51654, residues 25-559: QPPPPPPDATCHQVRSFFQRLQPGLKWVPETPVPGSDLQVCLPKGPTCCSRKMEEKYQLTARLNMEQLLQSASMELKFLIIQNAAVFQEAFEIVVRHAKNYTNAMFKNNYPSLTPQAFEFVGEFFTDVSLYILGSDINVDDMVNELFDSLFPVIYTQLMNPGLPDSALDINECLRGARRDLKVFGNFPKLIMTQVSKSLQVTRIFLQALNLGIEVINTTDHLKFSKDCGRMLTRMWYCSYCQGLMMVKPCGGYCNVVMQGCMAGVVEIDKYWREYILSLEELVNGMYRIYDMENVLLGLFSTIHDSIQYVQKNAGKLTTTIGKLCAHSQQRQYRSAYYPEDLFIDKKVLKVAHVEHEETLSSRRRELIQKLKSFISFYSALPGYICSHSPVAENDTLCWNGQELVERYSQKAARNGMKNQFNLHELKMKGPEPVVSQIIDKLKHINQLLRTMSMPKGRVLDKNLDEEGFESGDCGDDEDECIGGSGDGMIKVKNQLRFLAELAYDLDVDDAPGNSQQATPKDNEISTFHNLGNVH

How the values were obtained:
[1] = target: Human GPC3 (hGPC3 GP3-H5258, AcroBiosystems), biotinylated (human) (UniProt P51654); assay: biolayer interferometry (Octet Red 384; the legend calls it surface plasmon resonance), biotinylated hGPC3 on streptavidin (SAX) biosensors, hGPC3-1ec as analyte at 400, 160, 64, 25.6, 10.2, 4.1 and 1.64 nM, association 600 sec, dissociation 1800 sec
[2] = target: Human GPC3 (hGPC3 GP3-H5258, AcroBiosystems), biotinylated (human) (UniProt P51654); assay: sensorgrams at 400, 160, 64, 25.6, 10.2, 4.1 and 1.64 nM on immobilized hGPC3

binding [1]: binds
binding [2]: binds
B1: hGPC3-1ec (HBLE) (antibody, V domains shown)
VH: EVQLVQSGAEVKKPGATVKISCKVSGYTFTDYEMHWVQQAPGKGLEWMGGIDPETGGTAYNQKFKGRVTLTADKSTDTAYMELSSLRSEDTAVYYCGRYYSFAYWGQGTLVTVSS
VL: DVVMTQSPLSLPVTLGQPASISCRSSQSIVHSNANTYLQWFQQRPGQSPRLLIYKVSNRFSGVPDRFSGSGSGTDFTLKISRVEAEDVGVYYCFQVSHVPYTFGQGTKLEIK
notes: HBLE variable regions on IgG1 with a cysteine substitution at position 239 of the heavy chain (S239C, EU index); 'ec' marks this; Tested unconjugated; also called humanized GPC3-1ec
